Values quoted from earlier work, collected in patent US8741957B2, “Alpha-aminoamide derivatives useful in the treatment of cognitive disorders” (priority 2006, dated 2014).

System: experimental brain injury in the rat
Conditions: preclinical testing; cited from earlier work

## Nc1nc2ccc(OC(F)(F)F)cc2s1 [riluzole]
  cognition following experimental brain injury: improve cognition
